Experimental data from the supplement of paper PMC12889115.
The other results are listed elsewhere or left out. Values are raw readings; no control value is given beside them.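 In the initial screen, polymyxin B was used at a concentration that permeabilizes Salmonella's outer membrane but not its inner membrane. Maximum growth was set by DMSO wells with or without polymyxin B. Since plates varied, data were ranked per plate, and compounds giving the lowest OD600 advanced as hits.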

Test system: Salmonella enterica serovar Typhimurium SL1344
Assay: bacterial growth OD600 after 18 h with compound and polymyxin B; higher = more bacterial growth (less inhibition)
Conditions: 50 µM, Mueller-Hinton broth

| SMILES | bacterial growth OD600 (polymyxin B 1 µg/mL) | bacterial growth OD600 (polymyxin B 0.75 µg/mL) |
| --- | --- | --- |
| COc1ccc(C(CC(=O)N2CCNC(=O)C2)c2ccccc2)cc1 (centres undefined) | 0.81 | – |
| CCN1C(=O)CC(CC(=O)N(C)Cc2ccc3nccnc3c2)(c2cccc(C(F)(F)F)c2)C1=O (centres undefined) | – | 0.643 |
| c1ccc(CN2CCCC3(CCCN(c4nncc(-c5ccccc5)n4)C3)C2)cc1 (centres undefined) | – | 0.223 |
| CCOC(=O)C1(CCCc2ccccc2)CCCN(C(=O)c2c(C)nc3ncccn23)C1 (centres undefined) | 1.17 | – |
| C=CCCC(=O)NC1CC(C)(C)Cc2nc(N3CCOCC3)ncc21 (centres undefined) | 1.15 | – |
| O=C(c1cnc[nH]1)N1CCC(C2CCN(Cc3cccc(F)c3F)CC2)C1 (centres undefined) | – | 0.885 |
| COc1cc(Cl)cc(CN2CCCC(CCC(=O)NC3CC3)C2)c1OC (centres undefined) | 0.91 | – |
| COCCN(CC1CCN(Cc2ccccc2F)CC1)C(=O)c1ccc(C)cc1 | 1.18 | – |
| C=C(C)CN(CC)Cc1c(C(=O)N2CCN(C3CCCCC3)CC2)nc2ccccn12 | – | 0.686 |
| COCc1c(C(=O)NCc2ccc3c(c2)CCCN3C)cnn1-c1ncc(C)c(-c2cccs2)n1 | – | 0.002 |
| COc1ccc(N2C(=O)CN(C(=O)c3cc(F)c(F)cc3F)CC2(C)C)cc1 | – | 0.911 |
| CC(C)Cc1ccc(CN2CCCC(NC(=O)CCCn3cncn3)C2)cc1 (centres undefined) | 0.829 | – |
| COc1ccc2cc(-c3n[nH]cc3CN3CCC(OCc4cccnc4)CC3)ccc2c1 | 0.851 | – |
| CCOC(=O)C1(Cc2ccc(F)cc2F)CCCN(C(=O)CCN2CCCCC2=O)C1 (centres undefined) | 1.11 | – |
| CCCc1cc(C(=O)NCc2nc(-c3cccc(NC(=O)CCc4cccnc4)c3)oc2C)no1 | – | 0.533 |
| Cc1oc(-c2ccccc2NC(=O)CC2CCCC2)nc1CNC(=O)C(C)(C)C | – | 0.075 |
| CCn1cc(CN2CCCC(CCc3cccc(OC)c3)C2)cn1 (centres undefined) | – | 0.859 |
| O=C(c1nc2ccccn2c1CN1CCCCCCC1)N1CCN(C2CCCCC2)CC1 | 0.937 | – |
| Cc1ccccc1CN(CC1CCN(C2CCCC2)CC1)CC1CCCO1 (centres undefined) | 0.893 | – |

Two of the compounds above, as comma-separated lines.
SMILES,bacterial growth OD600 (polymyxin B 1 µg/mL),bacterial growth OD600 (polymyxin B 0.75 µg/mL)
CCOC(=O)C1(Cc2ccc(F)cc2F)CCCN(C(=O)CCN2CCCCC2=O)C1 (centres undefined),1.11,–
CCCc1cc(C(=O)NCc2nc(-c3cccc(NC(=O)CCc4cccnc4)c3)oc2C)no1,–,0.533
